± gives the standard deviation of the averaged measurements. The data scatter; read single values as rough.
Test system: Sindbis virus TE/5'2J-GFP
Test: percent infected (GFP+ in RFP+ ISG-expressing cells); higher = more infection (less antiviral activity)
Conditions: experiment: primary screen (single well)

Row | Sequence | percent infected (BHK/HA-Zeo (control)) [%] | percent infected (BHK/NZAP-Zeo (ZAP)) [%]
1 | MSSAIERKSLDPSEEPVDEVLQIPPSLLTCGGCQQNIGDRYFLKAIDQYWHEDCLSCDLCGCRLGEVGRRLYYKLGRKLCRRDYLRLFGQDGLCASCDKRIRAYEMTMRVKDKVYHLECFKCAACQKHFCVGDRYLLINSDIVCEQDIYEWTKINGMI [LMO2] | 91 | 75.6
2 | MSSDFPHYNFRMPNIGFQNLPLNIYIVVFGTAIFVFILSLLFCCYLIRLRHQAHKEFYAYKQVILKEKVKELNLHELCAVCLEDFKPRDELGICPCKHAFHRKCLIKWLEVRKVCPLCNMPVLQLAQLHSKQDRGPPQGPLPGAENIV [RNF24] | 98.6 | 97.5
3 | MSSENCFVAENSSLHPESGQENDATSPHFSTRHEGSFQVPVLCAVMNVVFITILIIALIALSVGQYNCPGQYTFSMPSDSHVSSCSEDWVGYQRKCYFISTVKRSWTSAQNACSEHGATLAVIDSEKDMNFLKRYAGREEHWVGLKKEPGHPWKWSNGKEFNNWFNVTGSDKCVFLKNTEVSSMECEKNLYWICNKPYK [CD69] | 88.1 | 81.9
4 | MSSILPFTPPIVKRLLGWKKGEQNGQEEKWCEKAVKSLVKKLKKTGQLDELEKAITTQNVNTKCITIPRSLDGRLQVSHRKGLPHVIYCRLWRWPDLHSHHELRAMELCEFAFNMKKDEVCVNPYHYQRVETPVLPPVLVPRHTEIPAEFPPLDDYSHSIPENTNFPAGIEPQSNIPETPPPGYLSEDGETSDHQMNHSMDAGSPNLSPNPMSPAHNNLDLQPVTYCEPAFWCSISYYELNQRVGETFHASQPSMTVDGFTDPSNSERFCLGLLSNVNRNAAVELTRRHIGRGVRLYYIGGEVFAECLSDSAIFVQSPNCNQRYGWHPATVCKIPPGCNLKIFNNQEFAALLAQSVNQGFEAVYQLTRMCTIRMSFVKGWGAEYRRQTVTSTPCWIELHLNGPLQWLDKVLTQMGSPSIRCSSVS [SMAD3] | 88 | 66.7
5 | MSSSGTPDLPVLLTDLKIQYTKIFINNEWHDSVSGKKFPVFNPATEEELCQVEEGDKEDVDKAVKAARQAFQIGSPWRTMDASERGRLLYKLADLIERDRLLLATMESMNGGKLYSNAYLNDLAGCIKTLRYCAGWADKIQGRTIPIDGNFFTYTRHEPIGVCGQIIPWNFPLVMLIWKIGPALSCGNTVVVKPAEQTPLTALHVASLIKEAGFPPGVVNIVPGYGPTAGAAISSHMDIDKVAFTGSTEVGKLIKEAAGKSNLKRVTLELGGKSPCIVLADADLDNAVEFAHHGVFYHQGQCCIAASRIFVEESIYDEFVRRSVERAKKYILGNPLTPGVTQGPQIDKEQYDKILDLIESGKKEGAKLECGGGPWGNKGYFVQPTVFSNVTDEMRIAKEEIFGPVQQIMKFKSLDDVIKRANNTFYGLSAGVFTKDIDKAITISSALQAGTVWVNCYGVVSAQCPFGGFKMSGNGRELGEYGFHEYTEVKTVTVKISQKNS [ALDH1A1] | 93.8 | 
6 | MSSWSRQRPKSPGGIQPHVSRTLFLLLLLAASAWGVTLSPKDCQVFRSDHGSSISCQPPAEIPGYLPADTVHLAVEFFNLTHLPANLLQGASKLQELHLSSNGLESLSPEFLRPVPQLRVLDLTRNALTGLPPGLFQASATLDTLVLKENQLEVLEVSWLHGLKALGHLDLSGNRLRKLPPGLLANFTLLRTLDLGENQLETLPPDLLRGPLQLERLHLEGNKLQVLGKDLLLPQPDLRYLFLNGNKLARVAAGAFQGLRQLDMLDLSNNSLASVPEGLWASLGQPNWDMRDGFDISGNPWICDQNLSDLYRWLQAQKDKMFSQNDTRCAGPEAVKGQTLLAVAKSQ [LRG1] | 95.7 | 82.6
7 | MSTAALITLVRSGGNQVRRRVLLSSRLLQDDRRVTPTCHSSTSEPRCSRFDPDGSGSPATWDNFGIWDNRIDEPILLPPSIKYGKPIPKISLENVGCASQIGKRKENEDRFDFAQLTDEVLYFAVYDGHGGPAAADFCHTHMEKCIMDLLPKEKNLETLLTLAFLEIDKAFSSHARLSADATLLTSGTTATVALLRDGIELVVASVGDSRAILCRKGKPMKLTIDHTPERKDEKERIKKCGGFVAWNSLGQPHVNGRLAMTRSIGDLDLKTSGVIAEPETKRIKLHHADDSFLVLTTDGINFMVNSQEICDFVNQCHDPNEAAHAVTEQAIQYGTEDNSTAVVVPFGAWGKYKNSEINFSFSRSFASSGRWA [PPM1K] | 97.75 ± 0.21 | 90.3 ± 0.14
8 | MSTEADEGITFSVPPFAPSGFCTIPEGGICRRGGAAAVGEGEEHQLPPPPPGSFWNVESAAAPGIGCPAATSSSSATRGRGSSVGGGSRRTTVAYVINEASQGQLVVAESEALQSLREACETVGATLETLHFGKLDFGETTVLDRFYNADIAVVEMSDAFRQPSLFYHLGVRESFSMANNIILYCDTNSDSLQSLKEIICQKNTMCTGNYTFVPYMITPHNKVYCCDSSFMKGLTELMQPNFELLLGPICLPLVDRFIQLLKVAQASSSQYFRESILNDIRKARNLYTGKELAAELARIRQRVDNIEVLTADIVINLLLSYRDIQDYDSIVKLVETLEKLPTFDLASHHHVKFHYAFALNRRNLPGDRAKALDIMIPMVQSEGQVASDMYCLVGRIYKDMFLDSNFTDTESRDHGASWFKKAFESEPTLQSGINYAVLLLAAGHQFESSFELRKVGVKLSSLLGKKGNLEKLQSYWEVGFFLGASVLANDHMRVIQASEKLFKLKTPAWYLKSIVETILIYKHFVKLTTEQPVAKQELVDFWMDFLVEATKTDVTVVRFPVLILEPTKIYQPSYLSINNEVEEKTISIWHVLPDDKKGIHEWNFSASSVRGVSISKFEERCCFLYVLHNSDDFQIYFCTELHCKKFFEMVNTITEEKGRSTEEGDCESDLLEYDYEYDENGDRVVLGKGTYGIVYAGRDLSNQVRIAIKEIPERDSRYSQPLHEEIALHKHLKHKNIVQYLGSFSENGFIKIFMEQVPGGSLSALLRSKWGPLKDNEQTIGFYTKQILEGLKYLHDNQIVHRDIKGDNVLINTYSGVLKISDFGTSKRLAGINPCTETFTGTLQYMAPEIIDKGPRGYGKAADIWSLGCTIIEMATGKPPFYELGEPQAAMFKVGMFKVHPEIPESMSAEAKAFILKCFEPDPDKRACANDLLVDEFLKVSSKKKKTQPKLSALSAGSNEYLRSISLPVPVLVEDTSSSSEYGSVSPDTELKVDPFSFKTRAKSCGERDVKGIRTLFLGIPDENFEDHSAPPSPEEKDSGFFMLRKDSERRATLHRILTEDQDKIVRNLMESLAQGAEEPKLKWEHITTLIASLREFVRSTDRKIIATTLSKLKLELDFDSHGISQVQVVLFGFQDAVNKVLRNHNIKPHWMFALDSIIRKAVQTAITILVPELRPHFSLASESDTADQEDLDVEDDHEEQPSNQTVRRPQAVIEDAVATSGVSTLSSTVSHDSQSAHRSLNVQLGRMKIETNRLLEELVRKEKELQALLHRAIEEKDQEIKHLKLKSQPIEIPELPVFHLNSSGTNTEDSELTDWLRVNGADEDTISRFLAEDYTLLDVLYYVTRDDLKCLRLRGGMLCTLWKAIIDFRNKQT [MAP3K5] | 92.6 | 94.8
9 | MSVKGMAIALAVILCATVVQGFPMFKRGRCLCIGPGVKAVKVADIEKASIMYPSNNCDKIEVIITLKENKGQRCLNPKSKQARLIIKKVERKNF [CXCL11] | 94.1 | 88.6
10 | MTEAGKLPLPLPPRLDWFVHTQMGQLAQDGVPEWFHGAISREDAENLLESQPLGSFLIRVSHSHVGYTLSYKAQSSCCHFMVKLLDDGTFMIPGEKVAHTSLDALVTFHQQKPIEPRRELLTQPCRQKDPANVDYEDLFLYSNAVAEEAACPVSAPEEASPKPVLCHQSKERKPSAEMNRITTKEATSSCPPKSPLGETRQKLWRSLKMLPERGQRVRQQLKSHLATVNLSSLLDVRRSTVISGPGTGKGSQDHSGDPTSGDRGYTDPCVATSLKSPSQPQAPKDRKVPTRKAERSVSCIEVTPGDRSWHQMVVRALSSQESKPEHQGLAEPENDQLPEEYQQPPPFAPGYC [HSH2D] | 96.9 | 94.3
11 | MTEALQWARYHWRRLIRGATRDDDSGPYNYSSLLACGRKSSQTPKLSGRHRIVVPHIQPFKDEYEKFSGAYVNNRIRTTKYTLLNFVPRNLFEQFHRAANLYFLFLVVLNWVPLVEAFQKEITMLPLVVVLTIIAIKDGLEDYRKYKIDKQINNLITKVYSRKEKKYIDRCWKDVTVGDFIRLSCNEVIPADMVLLFSTDPDGICHIETSGLDGESNLKQRQVVRGYAEQDSEVDPEKFSSRIECESPNNDLSRFRGFLEHSNKERVGLSKENLLLRGCTIRNTEAVVGIVVYAGHETKAMLNNSGPRYKRSKLERRANTDVLWCVMLLVIMCLTGAVGHGIWLSRYEKMHFFNVPEPDGHIISPLLAGFYMFWTMIILLQVLIPISLYVSIEIVKLGQIYFIQSDVDFYNEKMDSIVQCRALNIAEDLGQIQYLFSDKTGTLTENKMVFRRCSVAGFDYCHEENARRLESYQEAVSEDEDFIDTVSGSLSNMAKPRAPSCRTVHNGPLGNKPSNHLAGSSFTLGSGEGASEVPHSRQAAFSSPIETDVVPDTRLLDKFSQITPRLFMPLDETIQNPPMETLYIIDFFIALAICNTVVVSAPNQPRQKIRHPSLGGLPIKSLEEIKSLFQRWSVRRSSSPSLNSGKEPSSGVPNAFVSRLPLFSRMKPASPVEEEVSQVCESPQCSSSSACCTETEKQHGDAGLLNGKAESLPGQPLACNLCYEAESPDEAALVYAARAYQCTLRSRTPEQVMVDFAALGPLTFQLLHILPFDSVRKRMSVVVRHPLSNQVVVYTKGADSVIMELLSVASPDGASLEKQQMIVREKTQKHLDDYAKQGLRTLCIAKKVMSDTEYAEWLRNHFLAETSIDNREELLLESAMRLENKLTLLGATGIEDRLQEGVPESIEALHKAGIKIWMLTGDKQETAVNIAYACKLLEPDDKLFILNTQSKDACGMLMSTILKELQKKTQALPEQVSLSEDLLQPPVPRDSGLRAGLIITGKTLEFALQESLQKQFLELTSWCQAVVCCRATPLQKSEVVKLVRSHLQVMTLAIGDGANDVSMIQVADIGIGVSGQEGMQAVMASDFAVSQFKHLSKLLLVHGHWCYTRLSNMILYFFYKNVAYVNLLFWYQFFCGFSGTSMTDYWVLIFFNLLFTSAPPVIYGVLEKDVSAETLMQLPELYRSGQKSEAYLPHTFWITLLDAFYQSLVCFFVPYFTYQGSDTDIFAFGNPLNTAALFIVLLHLVIESKSLTWIHLLVIIGSILSYFLFAIVFGAMCVTCNPPSNPYWIMQEHMLDPVFYLVCILTTSIALLPRFVYRVLQGSLFPSPILRAKHFDRLTPEERTKALKKWRGAGKMNQVTSKYANQSAGKSGRRPMPGPSAVFAMKSASSCAIEQGNLSLCETALDQGYSETKAFEMAGPSKGKES [ATP10D] |  | 96.7
12 | MTLNNVTMRQGTVGMQPQQQRWSIPADGRHLMVQKEPHQYSHRNRHSATPEDHCRRSWSSDSTDSVISSESGNTYYRVVLIGEQGVGKSTLANIFAGVHDSMDSDCEVLGEDTYERTLMVDGESATIILLDMWENKGENEWLHDHCMQVGDAYLIVYSITDRASFEKASELRIQLRRARQTEDIPIILVGNKSDLVRCREVSVSEGRACAVVFDCKFIETSAAVQHNVKELFEGIVRQVRLRRDSKEKNERRLAYQKRKESMPRKARRFWGKIVAKNNKNMAFKLKSKSCHDLSVL [GEM] | 95.6 | 80.7
13 | MTLRCLEPSGNGGEGTRSQWGTAGSAEEPSPQAARLAKALRELGQTGWYWGSMTVNEAKEKLKEAPEGTFLIRDSSHSDYLLTISVKTSAGPTNLRIEYQDGKFRLDSIICVKSKLKQFDSVVHLIDYYVQMCKDKRTGPEAPRNGTVHLYLTKPLYTSAPSLQHLCRLTINKCTGAIWGLPLPTRLKDYLEEYKFQV [SOCS2] | 91.5 | 78.8
14 | MTPCLESFCQRAKDCKQNIPLPFLIQDWPLSESKPQGQDFWTPQPLQAAAPSHEFQQVALHPARTRLASRPQGGRLMSSREVGLRAPRCSCGKRKR [C5orf27] | 98.6 | 94.5

From the supplement of paper PMC3353916
